The nature of the data set: Glucose transduction of monotopic acridine-based boronate biosensor molecules by fluorescence spectroscopy. The protocol: Glucose transduction of particular acridine-based boronate bio sensor molecules was observed using fluorescence spectroscopy. Fluorescence measurements were taken on a Yorbin Fluorolog instrument. […]
Aliquots of glucose were added and responses were measured at 436 nm, or maximum intensity. (See Table 3).
Another transduction experiment was performed with ACRAB at 500 nm, or approximately 25% of the value of maximum intensity. The data taken at 500 nm generally parallel those taken at 436 nm, thus indicating no decrease in performance of the acridine-based boronate biosensor molecule at the longer wavelength. This shift of 83 nm is very significant in that it provides about a 10-fold increase of transmission of light through tissue and skin.
MEACRAB was then diluted 100-fold to 100 nM and transduction at conditions of ambient temperature. The solution contained 0.5% DMSO.

As to `Cc1ccc2nc3ccccc3c(CN(CCCCCO)Cc3ccccc3B(O)O)c2c1` [MEACRAB, aminomethylhydroxypentyl-methylacridine boronate], the Intensity is given as 62 cps × 10^4 (100 nM, 0.5% DMSO, ambient temperature, 509 nm, glucose 0 mg/dL); 75 cps × 10^4 (100 nM, 0.5% DMSO, ambient temperature, 509 nm, glucose 87 mg/dL); 80 cps × 10^4 (100 nM, 0.5% DMSO, ambient temperature, 509 nm, glucose 173 mg/dL); 95 cps × 10^4 (100 nM, 0.5% DMSO, ambient temperature, 509 nm, glucose 256 mg/dL); 110 cps × 10^4 (100 nM, 0.5% DMSO, ambient temperature, 509 nm, glucose 341 mg/dL); 120 cps × 10^4 (100 nM, 0.5% DMSO, ambient temperature, 509 nm, glucose 425 mg/dL). For the same molecule, the Intensity by setting is: (100 nM, 0.5% DMSO, ambient temperature, 509 nm, glucose 510 mg/dL) 130 cps × 10^4; (100 nM, 0.5% DMSO, ambient temperature, 509 nm, glucose 603 mg/dL) 135 cps × 10^4; (100 nM, 0.5% DMSO, ambient temperature, 509 nm, glucose 683 mg/dL) 137 cps × 10^4; (100 nM, 0.5% DMSO, ambient temperature, 509 nm, glucose 767 mg/dL) 140 cps × 10^4; (100 nM, 0.5% DMSO, ambient temperature, 509 nm, glucose 834 mg/dL) 145 cps × 10^4; (100 nM, 0.5% DMSO, ambient temperature, 509 nm, glucose 927 mg/dL) 150 cps × 10^4. Besides, the Intensity by setting is: (100 nM, 0.5% DMSO, ambient temperature, 509 nm, glucose 1012 mg/dL) 160 cps × 10^4; (10 μM in PBS, 4% DMSO, 500 nm, glucose 0 mg/dL) 100 cps × 10^3; (10 μM in PBS, 4% DMSO, 500 nm, glucose 93 mg/dL) 130 cps × 10^3; (10 μM in PBS, 4% DMSO, 500 nm, glucose 184 mg/dL) 160 cps × 10^3; (10 μM in PBS, 4% DMSO, 500 nm, glucose 275 mg/dL) 200 cps × 10^3; (10 μM in PBS, 4% DMSO, 500 nm, glucose 364 mg/dL) 220 cps × 10^3. This molecule also gave an Intensity (10 μM in PBS, 4% DMSO, 500 nm, glucose 459 mg/dL) of 270 cps × 10^3; an Intensity (10 μM in PBS, 4% DMSO, 500 nm, glucose 547 mg/dL) of 290 cps × 10^3; an Intensity (10 μM in PBS, 4% DMSO, 500 nm, glucose 650 mg/dL) of 320 cps × 10^3.
For the molecule “aminomethylhydroxypentyl-acridine boronate [ACRAB]”, the Intensity reads like this: (500 nm, glucose 0 mg/dL) 98.4 cps × 10^3; (500 nm, glucose 49 mg/dL) 109.5 cps × 10^3; (500 nm, glucose 149 mg/dL) 122.0 cps × 10^3; (500 nm, glucose 198 mg/dL) 134.8 cps × 10^3; (500 nm, glucose 284 mg/dL) 144.8 cps × 10^3; (500 nm, glucose 374 mg/dL) 153.9 cps × 10^3. The Intensity runs as follows: (500 nm, glucose 441 mg/dL) 159.7 cps × 10^3; (500 nm, glucose 559 mg/dL) 164.7 cps × 10^3; (approx 10 μM, PBS pH 7.4, 0.5% DMSO, 436 nm, glucose 0 mg/dL) 260.2 cps × 10^3; (approx 10 μM, PBS pH 7.4, 0.5% DMSO, 436 nm, glucose 50 mg/dL) 298.7 cps × 10^3; (approx 10 μM, PBS pH 7.4, 0.5% DMSO, 436 nm, glucose 150 mg/dL) 329.5 cps × 10^3; (approx 10 μM, PBS pH 7.4, 0.5% DMSO, 436 nm, glucose 200 mg/dL) 368 cps × 10^3. This molecule yielded an Intensity (approx 10 μM, PBS pH 7.4, 0.5% DMSO, 436 nm, glucose 300 mg/dL) of 384.4 cps × 10^3.

The record behind these values is US7045361B2, “Analyte sensing via acridine-based boronate biosensors” (Medtronic MiniMed, Inc., priority 2001, dated 2006).
